Measurements taken from the supplement of paper PMC10849652.
The other results are listed elsewhere or left out.

Amino acid sequences for entries named in this document (tags omitted). A change or cut given only in a name is not applied to a line headed by its entry.
UniProt Q13148, whole entry, looked up: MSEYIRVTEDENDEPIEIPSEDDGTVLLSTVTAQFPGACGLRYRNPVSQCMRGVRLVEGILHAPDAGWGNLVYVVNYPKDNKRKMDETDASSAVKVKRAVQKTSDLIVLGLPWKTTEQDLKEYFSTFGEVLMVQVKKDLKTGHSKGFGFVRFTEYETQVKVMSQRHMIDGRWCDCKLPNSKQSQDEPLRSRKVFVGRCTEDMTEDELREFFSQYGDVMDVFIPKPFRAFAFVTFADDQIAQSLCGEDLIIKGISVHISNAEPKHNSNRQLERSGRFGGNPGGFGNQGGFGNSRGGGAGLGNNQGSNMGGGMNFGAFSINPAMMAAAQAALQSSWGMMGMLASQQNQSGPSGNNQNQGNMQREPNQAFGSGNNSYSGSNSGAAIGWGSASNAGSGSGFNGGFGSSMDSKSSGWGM
UniProt Q13033: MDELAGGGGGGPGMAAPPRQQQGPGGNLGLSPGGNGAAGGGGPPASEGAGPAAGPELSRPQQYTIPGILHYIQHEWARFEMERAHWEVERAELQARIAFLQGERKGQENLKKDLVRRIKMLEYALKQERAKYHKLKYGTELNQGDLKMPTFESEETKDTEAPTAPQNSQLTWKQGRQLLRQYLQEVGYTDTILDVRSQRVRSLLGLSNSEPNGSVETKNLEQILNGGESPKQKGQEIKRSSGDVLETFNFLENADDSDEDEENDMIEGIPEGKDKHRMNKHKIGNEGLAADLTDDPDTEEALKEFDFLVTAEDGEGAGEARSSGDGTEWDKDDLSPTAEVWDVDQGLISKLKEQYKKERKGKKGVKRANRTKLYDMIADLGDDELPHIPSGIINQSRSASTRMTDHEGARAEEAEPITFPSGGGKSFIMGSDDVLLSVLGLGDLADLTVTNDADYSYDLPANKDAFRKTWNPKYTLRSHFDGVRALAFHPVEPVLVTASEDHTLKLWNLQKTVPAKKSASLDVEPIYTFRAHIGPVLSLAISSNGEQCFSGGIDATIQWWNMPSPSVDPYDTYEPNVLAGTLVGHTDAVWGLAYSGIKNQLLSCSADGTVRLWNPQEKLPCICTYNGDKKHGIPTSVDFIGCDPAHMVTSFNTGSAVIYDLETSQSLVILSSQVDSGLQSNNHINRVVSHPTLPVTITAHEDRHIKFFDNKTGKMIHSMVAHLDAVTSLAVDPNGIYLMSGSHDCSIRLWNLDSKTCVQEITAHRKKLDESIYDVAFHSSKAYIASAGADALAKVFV
UniProt Q9Y3F4: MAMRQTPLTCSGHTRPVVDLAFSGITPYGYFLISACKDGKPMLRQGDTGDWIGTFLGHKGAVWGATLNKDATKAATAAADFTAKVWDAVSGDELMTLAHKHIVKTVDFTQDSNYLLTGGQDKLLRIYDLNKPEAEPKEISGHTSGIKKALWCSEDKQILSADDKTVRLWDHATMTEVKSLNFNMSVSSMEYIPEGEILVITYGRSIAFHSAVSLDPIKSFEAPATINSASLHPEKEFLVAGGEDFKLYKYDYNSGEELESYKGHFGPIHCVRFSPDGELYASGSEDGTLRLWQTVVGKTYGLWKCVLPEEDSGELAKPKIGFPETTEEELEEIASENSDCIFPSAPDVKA
UniProt Q15750: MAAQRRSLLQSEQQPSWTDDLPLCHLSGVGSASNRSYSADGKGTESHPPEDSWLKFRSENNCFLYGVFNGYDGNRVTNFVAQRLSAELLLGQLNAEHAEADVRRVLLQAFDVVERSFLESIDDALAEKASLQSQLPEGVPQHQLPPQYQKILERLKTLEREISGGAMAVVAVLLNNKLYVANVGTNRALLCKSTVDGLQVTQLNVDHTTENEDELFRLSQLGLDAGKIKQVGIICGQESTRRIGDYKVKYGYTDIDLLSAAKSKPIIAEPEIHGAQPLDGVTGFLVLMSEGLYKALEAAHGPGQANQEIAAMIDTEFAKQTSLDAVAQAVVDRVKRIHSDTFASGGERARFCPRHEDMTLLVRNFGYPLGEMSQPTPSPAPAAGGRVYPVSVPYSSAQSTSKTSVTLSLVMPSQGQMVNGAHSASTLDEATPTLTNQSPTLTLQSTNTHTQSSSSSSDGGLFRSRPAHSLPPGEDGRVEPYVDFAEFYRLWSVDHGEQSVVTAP
UniProt O60506: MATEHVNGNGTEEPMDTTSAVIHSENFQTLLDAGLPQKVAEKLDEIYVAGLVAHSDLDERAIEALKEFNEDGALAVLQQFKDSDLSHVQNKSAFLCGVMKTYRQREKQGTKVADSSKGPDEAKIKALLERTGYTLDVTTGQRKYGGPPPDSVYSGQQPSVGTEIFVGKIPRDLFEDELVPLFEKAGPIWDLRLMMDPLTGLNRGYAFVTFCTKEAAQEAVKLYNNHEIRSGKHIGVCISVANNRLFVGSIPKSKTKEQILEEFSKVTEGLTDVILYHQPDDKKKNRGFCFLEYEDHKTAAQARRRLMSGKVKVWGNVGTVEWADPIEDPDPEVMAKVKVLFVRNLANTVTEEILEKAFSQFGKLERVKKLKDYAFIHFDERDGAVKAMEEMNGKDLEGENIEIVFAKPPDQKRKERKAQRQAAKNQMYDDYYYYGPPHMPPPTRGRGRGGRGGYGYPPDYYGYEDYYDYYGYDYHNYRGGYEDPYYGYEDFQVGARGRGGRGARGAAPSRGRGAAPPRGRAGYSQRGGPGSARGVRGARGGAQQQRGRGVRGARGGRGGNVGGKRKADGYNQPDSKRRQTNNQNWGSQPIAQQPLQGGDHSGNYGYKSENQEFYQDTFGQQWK
UniProt Q9P2W9: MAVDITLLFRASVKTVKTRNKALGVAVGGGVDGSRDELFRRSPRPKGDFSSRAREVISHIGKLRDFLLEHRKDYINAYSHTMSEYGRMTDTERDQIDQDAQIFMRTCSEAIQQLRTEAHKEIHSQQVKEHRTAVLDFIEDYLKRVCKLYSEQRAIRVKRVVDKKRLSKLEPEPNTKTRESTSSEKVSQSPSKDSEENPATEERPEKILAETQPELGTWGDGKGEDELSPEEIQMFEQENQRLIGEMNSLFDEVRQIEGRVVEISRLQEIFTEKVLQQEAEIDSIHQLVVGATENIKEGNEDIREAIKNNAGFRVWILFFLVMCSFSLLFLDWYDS
UniProt P08247, whole entry, looked up: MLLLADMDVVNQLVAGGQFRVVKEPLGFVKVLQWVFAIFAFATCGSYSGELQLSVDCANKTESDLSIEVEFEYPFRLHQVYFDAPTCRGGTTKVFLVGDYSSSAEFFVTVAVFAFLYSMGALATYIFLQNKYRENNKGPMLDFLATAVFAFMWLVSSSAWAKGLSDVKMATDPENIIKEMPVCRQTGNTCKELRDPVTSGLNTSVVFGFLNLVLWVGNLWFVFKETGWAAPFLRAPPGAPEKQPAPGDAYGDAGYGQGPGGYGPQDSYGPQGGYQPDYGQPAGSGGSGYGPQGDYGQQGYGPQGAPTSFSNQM
UniProt O75410: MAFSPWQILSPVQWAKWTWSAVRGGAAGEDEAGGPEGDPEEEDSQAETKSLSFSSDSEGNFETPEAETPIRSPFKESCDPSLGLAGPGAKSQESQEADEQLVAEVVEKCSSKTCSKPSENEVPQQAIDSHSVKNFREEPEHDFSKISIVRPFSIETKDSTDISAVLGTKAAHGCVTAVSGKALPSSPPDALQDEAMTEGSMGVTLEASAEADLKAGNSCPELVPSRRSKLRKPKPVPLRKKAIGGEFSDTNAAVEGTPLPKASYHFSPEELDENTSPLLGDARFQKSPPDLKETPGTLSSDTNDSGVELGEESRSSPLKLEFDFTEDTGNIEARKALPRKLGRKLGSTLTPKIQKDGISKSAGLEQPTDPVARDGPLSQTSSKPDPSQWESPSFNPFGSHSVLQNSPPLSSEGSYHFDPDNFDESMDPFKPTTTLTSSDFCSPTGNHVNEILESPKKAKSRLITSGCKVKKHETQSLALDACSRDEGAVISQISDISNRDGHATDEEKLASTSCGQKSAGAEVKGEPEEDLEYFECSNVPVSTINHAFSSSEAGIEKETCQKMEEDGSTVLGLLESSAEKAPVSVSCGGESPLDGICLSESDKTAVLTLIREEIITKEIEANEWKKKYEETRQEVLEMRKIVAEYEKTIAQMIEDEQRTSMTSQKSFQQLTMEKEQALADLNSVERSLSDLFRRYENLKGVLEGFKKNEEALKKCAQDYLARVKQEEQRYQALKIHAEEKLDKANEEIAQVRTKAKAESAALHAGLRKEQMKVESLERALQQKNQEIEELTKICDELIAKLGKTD
UniProt Q86Y82: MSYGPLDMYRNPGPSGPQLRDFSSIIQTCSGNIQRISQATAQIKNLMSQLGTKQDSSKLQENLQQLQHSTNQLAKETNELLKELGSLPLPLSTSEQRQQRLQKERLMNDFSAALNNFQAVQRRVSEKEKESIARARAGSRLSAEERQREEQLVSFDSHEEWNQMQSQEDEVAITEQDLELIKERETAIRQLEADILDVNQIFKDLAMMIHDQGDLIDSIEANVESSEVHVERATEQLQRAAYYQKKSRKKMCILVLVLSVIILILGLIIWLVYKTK
UniProt Q8N2H4: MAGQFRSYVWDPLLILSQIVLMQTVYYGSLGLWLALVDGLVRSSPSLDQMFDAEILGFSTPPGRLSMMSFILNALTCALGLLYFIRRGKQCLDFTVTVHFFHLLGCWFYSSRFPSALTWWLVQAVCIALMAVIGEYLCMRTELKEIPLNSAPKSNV
UniProt Q15545, whole entry, looked up: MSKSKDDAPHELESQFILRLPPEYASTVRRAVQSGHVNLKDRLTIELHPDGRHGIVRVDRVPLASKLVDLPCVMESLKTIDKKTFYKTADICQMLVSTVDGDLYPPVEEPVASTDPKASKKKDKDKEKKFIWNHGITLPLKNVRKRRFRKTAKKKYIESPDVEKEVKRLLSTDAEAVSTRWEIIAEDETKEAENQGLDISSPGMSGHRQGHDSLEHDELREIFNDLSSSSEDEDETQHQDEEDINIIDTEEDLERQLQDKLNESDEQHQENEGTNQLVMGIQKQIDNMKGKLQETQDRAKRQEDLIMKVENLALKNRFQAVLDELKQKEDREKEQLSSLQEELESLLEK
UniProt Q9H7L9: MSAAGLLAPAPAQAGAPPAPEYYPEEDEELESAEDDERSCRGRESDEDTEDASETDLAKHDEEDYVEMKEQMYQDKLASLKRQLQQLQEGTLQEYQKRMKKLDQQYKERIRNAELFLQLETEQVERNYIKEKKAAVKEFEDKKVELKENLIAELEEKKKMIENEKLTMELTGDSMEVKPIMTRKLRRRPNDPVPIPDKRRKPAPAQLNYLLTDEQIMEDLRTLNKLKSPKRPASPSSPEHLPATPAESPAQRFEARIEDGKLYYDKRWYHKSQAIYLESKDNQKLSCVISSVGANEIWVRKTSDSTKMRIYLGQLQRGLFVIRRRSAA
UniProt Q9UH65: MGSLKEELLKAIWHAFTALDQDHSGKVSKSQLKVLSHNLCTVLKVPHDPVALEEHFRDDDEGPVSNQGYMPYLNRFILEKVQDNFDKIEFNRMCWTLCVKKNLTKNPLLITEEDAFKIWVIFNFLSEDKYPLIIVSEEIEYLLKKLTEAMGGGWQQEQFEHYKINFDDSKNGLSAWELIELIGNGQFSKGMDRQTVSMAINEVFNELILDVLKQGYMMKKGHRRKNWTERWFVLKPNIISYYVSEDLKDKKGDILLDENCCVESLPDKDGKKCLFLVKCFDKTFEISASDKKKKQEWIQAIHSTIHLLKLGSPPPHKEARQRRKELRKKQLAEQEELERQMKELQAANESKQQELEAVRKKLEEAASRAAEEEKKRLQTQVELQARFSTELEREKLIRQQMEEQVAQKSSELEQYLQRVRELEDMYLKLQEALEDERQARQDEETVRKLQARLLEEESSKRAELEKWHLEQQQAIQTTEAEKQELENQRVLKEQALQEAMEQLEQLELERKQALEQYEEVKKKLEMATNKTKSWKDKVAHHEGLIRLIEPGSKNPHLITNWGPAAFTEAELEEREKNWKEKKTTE
UniProt Q6NXT6: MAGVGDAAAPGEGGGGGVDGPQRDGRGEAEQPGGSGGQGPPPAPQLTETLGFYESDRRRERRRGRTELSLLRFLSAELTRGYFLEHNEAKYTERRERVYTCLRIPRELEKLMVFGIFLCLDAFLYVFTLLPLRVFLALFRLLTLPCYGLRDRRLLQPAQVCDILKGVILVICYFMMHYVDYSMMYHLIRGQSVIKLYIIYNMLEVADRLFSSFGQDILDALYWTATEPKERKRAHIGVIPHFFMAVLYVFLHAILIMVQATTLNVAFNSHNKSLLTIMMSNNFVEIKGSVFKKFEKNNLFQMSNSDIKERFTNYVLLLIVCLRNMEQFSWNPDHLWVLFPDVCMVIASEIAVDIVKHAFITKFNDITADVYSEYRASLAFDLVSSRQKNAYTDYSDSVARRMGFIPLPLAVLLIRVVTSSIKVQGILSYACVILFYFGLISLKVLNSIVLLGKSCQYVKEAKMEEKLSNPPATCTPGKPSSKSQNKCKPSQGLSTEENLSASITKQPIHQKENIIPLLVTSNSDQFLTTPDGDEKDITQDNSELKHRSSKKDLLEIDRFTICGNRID
UniProt Q9NZ72: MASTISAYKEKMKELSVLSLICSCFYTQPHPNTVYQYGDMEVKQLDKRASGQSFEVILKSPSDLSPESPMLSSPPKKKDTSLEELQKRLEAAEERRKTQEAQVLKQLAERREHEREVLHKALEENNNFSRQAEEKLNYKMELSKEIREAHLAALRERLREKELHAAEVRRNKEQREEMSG

The targets below were run with c1cn2cc(-c3ccc4cn[nH]c4c3)nc(Nc3ccc(N4CCOCC4)cc3)c2n1 [entospletinib] (assay: log2 fold change, soluble protein after heating vs DMSO (PISA); higher = thermal stabilisation; K562 cells, 10 uM, 30 min; active = over 0.2 and 3.5 SD of the protein, either way, in both replicates (recomputed)).
Method in brief: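 Aliquots of K562 cells (2×10^6 cells/mL) treated with 10 μM compound for 30 min were heated for 3 min over 48°C-58°C. After pooling and extraction in PBS with 0.5% NP-40 at 4°C, soluble protein from a 21,000xg, 90 min spin was quantified by TMTpro 16plex LC-MS/MS with channel sums equalised. Thermal stability is expressed against control samples, from duplicates, as a log2 fold change.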

log2 fold change, inactive:
TARDBP (UniProt Q13148) 0.048
STRN3 (UniProt Q13033) 0.037
STRAP isoform 2 (UniProt Q9Y3F4) 0.016
TAB1 (UniProt Q15750) 0.029
SYNCRIP isoform 3 (UniProt O60506) 0.176
SUPT4H1 (UniProt P63272) 0.082
STX18 (UniProt Q9P2W9) 0.001
SYPL1 (UniProt Q16563) 0.036
SUMF2 (UniProt Q8NBJ7) 0.036
SYP (UniProt P08247) 0.034
SUB1 (UniProt P53999) -0.007
TACC1 isoform 2 (UniProt O75410) -0.014
STX12 (UniProt Q86Y82) 0.007
SYS1 (UniProt Q8N2H4) -0.209
SYNJ1 (UniProt O43426) 0.004
TANGO2 isoform 4 (UniProt Q6ICL3) -0.019
TACO1 (UniProt Q9BSH4) -0.067
TAF5L (UniProt O75529) -0.057
STX8 (UniProt Q9UNK0) -0.008
TAF8 isoform 2 (UniProt Q7Z7C8) 0.053
TARBP2 (UniProt Q15633) 0.128
TAF7 (UniProt Q15545) -0.013
SYNGR1 isoform 3 (UniProt O43759) 0
SUDS3 (UniProt Q9H7L9) -0.063
SWAP70 (UniProt Q9UH65) -0.072
TARS1 (UniProt P26639) 0.001
STRN4 isoform 3 (UniProt Q9NRL3) -0.037
TAPT1 (UniProt Q6NXT6) -0.005
STXBP1 (UniProt P61764) -0.043
STMN3 (UniProt Q9NZ72) -0.003

2 records drawn at random from the list so far, as already listed:
log2 fold change, inactive:
TACC1 isoform 2 (UniProt O75410) -0.014
TAF5L (UniProt O75529) -0.057
